Reference: PubChem BioAssay AID1259415 (National Center for Advancing Translational Sciences (NCATS), 2018)
Screen size: about 410,000 compounds; about 18,000 (4.4%) were called active. This list was built around the results that the source calls inconclusive (neither active nor inactive); the mix of calls is not that of the screen. Rule as the data show it: active = activity change below about -60%; inconclusive = no clear call, values can overlap the other calls; inactive = above about -39%.

Experiment: qHTS Assay for inhibitors of the human cytomegalovirus (HCMV)
Details: HFF cells, HCMV-luciferase reporter, 72 h; at 57.5 µM; active compounds read low
How it was run: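 Luciferase read-out from HCMV-luciferase-infected HFFs (MOI 1 PFU/cell) 72 h post infection at 37C; compounds added after 16 h cell attachment; activity normalized between buffer-only basal and Salinomycin (10uM) inhibitor controls.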
% is scaled to controls: 0 for no effect and ±100 for the full control effect.

Compound	activity change, negative = inhibition
Cc1ccc(NC(=O)c2ccc(Cl)c(S(=O)(=O)N3CCCCC3)c2)nc1	inconclusive: -46.7%
CC(C)c1ccc(N(CC(=O)NN=C2CCN(C)CC2)S(=O)(=O)c2ccccc2)cc1	inconclusive: -56.5%
O=C(NC(=S)Nc1ccccc1N1CCCCC1)c1cccs1	inactive: 7.97%
CCCNC(=O)Cn1cnc2sc(C(=O)NCCCN3CCOCC3)c(C)c2c1=O	inconclusive: 0%
COc1ccc(S(=O)(=O)N(C)C[C@H]2Oc3ccc(NC(=O)Nc4c(C)noc4C)cc3C(=O)N([C@H](C)CO)C[C@@H]2C)cc1	inactive: 9.2%
CC(=O)Nc1ccc(N2C(=O)CSC2c2cccc(Br)c2)cc1 (stereo unspecified)	inconclusive: -42.7%
CCN=c1sc2ccccc2n1CC(O)COc1ccccc1 (stereo unspecified)	inconclusive: -44.2%
O=C(Nc1cccc(OCc2cc(=O)n3c4c(sc3n2)CCCC4)c1)c1ccc(F)cc1	inactive: 1.44%
COc1ccccc1C1SCCN1S(=O)(=O)c1cccc(C(F)(F)F)c1 (stereo unspecified)	inconclusive: -46.9%
C=CCSc1nnc(-c2nnc(SCC=C)n2-c2ccccc2)n1-c1ccccc1	inconclusive: -42.8%
CCOc1ccc(-n2c(SCC(=O)Nc3ccc(OC)cc3)nc3c(c2=O)SCC3)cc1	inconclusive: -50%
COc1ccc(C(=O)Nc2cc(C)nn2-c2nc3ccccc3[nH]2)c(OC)c1	active: -63.5%
CC1(C(=O)NS(=O)(=O)c2ccccc2Cl)CCN1C(=O)CC1CCCC1 (stereo unspecified)	inactive: -6.61%
Cc1ccnc(NC(=O)C2CCN(S(=O)(=O)c3cccc4nsnc34)CC2)c1	inconclusive: -58.6%
CCOC(=O)c1c(NC(=O)COc2cc(C)ccc2C(C)C)sc(C)c1C	inactive: 12.8%
Cn1c(C(C(=O)NCC2CCCO2)N(CCc2ccccc2)C(=O)Cn2nnc3ccccc32)nc2ccccc21 (stereo unspecified)	active: -65.2%
Cc1ccc(NC(=O)COC(=O)c2cc(C)nc3ccccc23)c([N+](=O)[O-])c1	inconclusive: -41.6%
CCOC(=O)c1cn2nc(Oc3ccc(C#N)cc3)ccc2n1	inconclusive: -41.4%
O=C(NCCC1=CCCCC1)c1ccc2c(c1)N(Cc1cccc(Cl)c1)C(=O)c1ccccc1S2=O (stereo unspecified)	active: -62.8%
COc1cc(OC)c(/C=N/NC(=O)c2ccc(Cn3nc([N+](=O)[O-])cc3C)cc2)c(OC)c1	inconclusive: -51%
Cc1ccc(C)c(NC(=O)CN(C)C(=O)c2cccc(S(=O)(=O)N3CCN(Cc4ccccc4)CC3)c2)c1	inconclusive: -56.3%
COCc1cc(C)nc(SCc2ccc(Br)cc2)c1C#N	inconclusive: -50.1%

Compound	activity change, negative = inhibition
COc1ccc(C(=O)C2CCCN(Cc3sc(N4CCCC4)nc3Cl)C2)c(OC)c1 (stereo unspecified)	active: -72.2%
CCOC(=O)c1c(C)[nH]c(C)c1S(=O)(=O)NCC(=O)Nc1ccccn1	inconclusive: -40.6%
CC(=O)c1c(C)[nH]c(C(=O)Nc2ccc(C)c(S(=O)(=O)Nc3ccc(C)cc3C)c2)c1C	inactive: 0.455%
O=C1N(c2cccc(Cl)c2)C(c2ccc(Cl)cc2)N2CCCN12 (stereo unspecified)	inconclusive: -57.5%
CC1CCc2nc3sc4c(c3c(N)c2C1)CCCC4 (stereo unspecified)	inactive: 28.1%
C#CC[N+](C)(C)CCCCCCCCCCCC	active: -97.8%
COc1ccccc1CCc1nnc(CCC(=O)N(C)Cc2cccc3cnccc23)o1	inactive: -20.5%
Cc1nn(Cc2ccccc2)c(Cl)c1/C=N/NC(=O)c1cccnc1	inconclusive: -56.9%
COC(=O)CN1C(=O)CSc2ccc(S(=O)(=O)Nc3cc(C)ccc3C)cc21	active: -71.2%
N#CCC(=O)Nn1c(=S)[nH]c2ccccc2c1=O	inconclusive: -45.8%
Cc1ccc(C#N)c(SCC(=O)Nc2nccs2)n1	inactive: 105%
CC(C)CNC(=O)c1coc(=O)c(Br)c1	active: -77.3%
O=C(CCSc1ccccc1)NC1CCCC1	inactive: 54%
CCCc1cc(-c2[nH]ncc2-c2ccc(C(=O)OCC)o2)c(O)cc1O	active: -62%
CCc1cc(OCCCSc2nc(C)cc(=O)[nH]2)ccc1Cl	inconclusive: -56.2%
COc1ccccc1C(=O)Nc1cccc(C(=O)OCc2cc(=O)n3cc(C)sc3n2)c1	inconclusive: -57.6%
Cn1c(=O)c(C(=O)CSc2nncs2)c(N)n(Cc2ccccc2)c1=O	inconclusive: -58.1%
C=CCN1CC(O)=C(c2ccccc2)C1=N	active: -68.6%
Cc1cc(C)c(NC(=O)c2sc3nc(C)cc(C)c3c2NC(=O)c2ccccc2)c(C)c1	inconclusive: -42.4%
CC1=C(c2ccc(C)c(C)c2)S(=O)(=O)NC1=NCc1ccccc1Cl	inactive: -23%
COc1ccc(-c2n[nH]c3c2C(c2ccc(OC)c(OC)c2)N(c2ccccc2)C3=O)cc1 (stereo unspecified)	inactive: 17.7%
C=CCN=C1NC(c2cccc(Cl)c2)C(C(=O)OC)=C(C)N1Cc1cccc(C(F)(F)F)c1 (stereo unspecified)	inconclusive: -54.2%

Compound	activity change, negative = inhibition
CN(c1ccccc1)S(=O)(=O)c1ccc(C(=O)NCc2ccccc2CN2CCCC2)cc1	inconclusive: -41.5%
CC1=Nc2cc(C(=O)NCc3ccccc3Cl)ccc2Sc2c(C)ccc(C)c21	active: -90.4%
COc1ccc(C(=O)Nc2ccccc2Cc2ccccc2)c(OC)c1	active: -70.6%
CCc1c(C)nc2ncnn2c1N1CCCC(C(=O)NCCc2ccc(OC)cc2)C1 (stereo unspecified)	active: -68.1%
COC(=O)c1[nH]nc2c1C(=O)N(C1CCCCC1)C2=O	inactive: -7.89%
CCCn1c(=O)n(-c2ccccc2Cl)c(=O)c2sc3ccccc3c21	inactive: -1.55%
Cc1cc(C)c(NC(=O)Cn2nc(-c3ccncc3)ccc2=O)c(C)c1	inconclusive: -55.9%
COc1ccccc1C1CC(=O)Oc2cc(C)c(Cl)c(C)c21 (stereo unspecified)	inactive: 0.634%
CCC(=O)NC(c1ccco1)c1cc(Cl)c2ccccc2c1O (stereo unspecified)	inconclusive: -42.3%
COc1ccc2oc(C(=O)OCC(=O)N(Cc3ccccc3)C(C)(C)C)c(C)c2c1	inactive: 7.86%
CC(C)OC(=O)c1ccc(N2CCN(c3ccc(F)cc3)CC2)nc1	inconclusive: -57.3%
O=C(Cc1cccc(Cl)c1)Nc1ccc(Br)cc1	inconclusive: -49.8%
CSc1ccc(CCNC(=O)c2cc(C)nc3c2c(C)nn3-c2ccccc2)cc1	inactive: 19.4%
Cn1nc(C(C)(C)C)cc1C(=O)N1CCCCC1c1cc(C(=O)NCc2ccc(F)cc2)no1 (stereo unspecified)	active: -74.9%
O=C1CN(C(=O)COC(=O)CNS(=O)(=O)/C=C/c2ccccc2)c2ccccc2N1	inconclusive: -41.5%
OC[C@@H]1CN(Cc2ccc(F)cc2)C[C@H](n2cnc3c(NCc4ccc(F)cc4)ncnc32)O1	inconclusive: -53.3%
Cc1ccc(C(=O)N/C(=C\c2ccco2)C(=O)NCCN2CCOCC2)cc1	inconclusive: -45.7%
O=C(CCCC(=O)N(c1ccc2c(c1)OCCO2)C(C(=O)NC1CCCCC1)c1ccc(F)cc1)Nc1ccccn1 (stereo unspecified)	active: -68.4%
CCc1nc2oc3ccccc3c(=O)c2c(=O)n1Cc1ccccc1	inconclusive: -52.3%
O=C(c1ccc(Cn2c(=O)[nH]c3ccccc3c2=O)cc1)N1CCN(c2ccc(Cl)cc2)CC1	inconclusive: -53.6%
Cc1ccc(-c2c[n+](CC(=O)N3c4ccccc4Sc4ccccc43)c3n2CCC3)cc1	active: -86.7%
O=C(O)CC1(CC(=O)N2CCOCC2)CCCC1	inactive: -11.8%

Compound	activity change, negative = inhibition
CCN(C(=O)Cn1nnc2sc3c(c2c1=O)CCC(C(C)(C)C)C3)c1cccc(C)c1 (stereo unspecified)	inactive: -1.53%
COC(=O)c1cc2oc3ccccc3c2n1Cc1nc(-c2ccc(Cl)cc2)oc1C	inactive: 3.81%
CCCNC(=O)c1c[nH]c2ccc(S(=O)(=O)N(C)c3ccc(OCC)cc3)cc2c1=O	inconclusive: -49.5%
CCOc1ccccc1C(=O)OCC(=O)Nc1ccc(OC(F)F)cc1	inactive: 6.34%
O=C(Cc1ccc([N+](=O)[O-])cc1)Nc1ccc(Br)cn1	active: -61.2%
O=C1CN(C(=O)c2cc([N+](=O)[O-])ccc2Cl)C(c2ccc(F)cc2)c2cc(F)ccc2N1 (stereo unspecified)	inconclusive: -43.2%
O=C(NCCN1C(=O)S/C(=C\c2cccnc2)C1=O)c1cc(S(=O)(=O)N2CCOCC2)ccc1F	inconclusive: -44.7%
O=C(NCCc1csc(-c2ccccc2)n1)c1c(F)cccc1Cl	active: -69.6%
Cc1ccc(CN2CCC(c3nc4ccc(Cl)cc4[nH]3)CC2)cc1	inactive: -19.5%
O=C(Nc1ccc(Br)cc1Cl)NC1CC1	inconclusive: -46.7%
COc1cc(/C=N/N=C(N)N)ccc1OCc1ccccc1Cl	active: -100%
CCOC(=O)CSC1=C(C#N)C(c2ccc(Cl)cc2)C(C(=O)OC)C(=O)N1 (stereo unspecified)	inconclusive: -41.6%
N#Cc1cnn2c(N)c(-c3ccc(Cl)cc3)cnc12	inconclusive: -59.8%
COc1ccc(CCC(=O)NCCc2ccc(OC)c(OC)c2)cc1	inactive: 15.3%
COc1ccc(S(=O)(=O)N2CCCCC2c2cc(C(=O)Nc3ccc4c(c3)OCO4)no2)cc1 (stereo unspecified)	inconclusive: -50.3%
O=C(c1cnn2ccccc12)N1CCN(C2CCCCC2)CC1	inactive: 54.5%
COc1ccc(Br)c(C=O)c1OS(=O)(=O)c1ccc(C)cc1	inconclusive: -52.2%
COC(=O)c1ccc(-c2ccc(F)cc2)nc1C	inactive: 33.5%
Cn1c(-c2ccsc2)c(-c2cccs2)c2cc(-c3ccc4[nH]ccc4c3)ccc21	inactive: -8.6%
CCN(CC)S(=O)(=O)c1ccc(NC=C(C#N)C#N)cc1	inconclusive: -49%

For reference, some entries already given.
Compound	activity change, negative = inhibition
CC(C)c1ccc(N(CC(=O)NN=C2CCN(C)CC2)S(=O)(=O)c2ccccc2)cc1	inconclusive: -56.5%
O=C(NC(=S)Nc1ccccc1N1CCCCC1)c1cccs1	inactive: 7.97%
CCCNC(=O)Cn1cnc2sc(C(=O)NCCCN3CCOCC3)c(C)c2c1=O	inconclusive: 0%
COc1ccc(S(=O)(=O)N(C)C[C@H]2Oc3ccc(NC(=O)Nc4c(C)noc4C)cc3C(=O)N([C@H](C)CO)C[C@@H]2C)cc1	inactive: 9.2%
CC(=O)Nc1ccc(N2C(=O)CSC2c2cccc(Br)c2)cc1 (stereo unspecified)	inconclusive: -42.7%
CCN=c1sc2ccccc2n1CC(O)COc1ccccc1 (stereo unspecified)	inconclusive: -44.2%
O=C(Nc1cccc(OCc2cc(=O)n3c4c(sc3n2)CCCC4)c1)c1ccc(F)cc1	inactive: 1.44%
COc1ccccc1C1SCCN1S(=O)(=O)c1cccc(C(F)(F)F)c1 (stereo unspecified)	inconclusive: -46.9%
C=CCSc1nnc(-c2nnc(SCC=C)n2-c2ccccc2)n1-c1ccccc1	inconclusive: -42.8%
CCOc1ccc(-n2c(SCC(=O)Nc3ccc(OC)cc3)nc3c(c2=O)SCC3)cc1	inconclusive: -50%
COc1ccc(C(=O)Nc2cc(C)nn2-c2nc3ccccc3[nH]2)c(OC)c1	active: -63.5%
CC1(C(=O)NS(=O)(=O)c2ccccc2Cl)CCN1C(=O)CC1CCCC1 (stereo unspecified)	inactive: -6.61%
Cc1ccnc(NC(=O)C2CCN(S(=O)(=O)c3cccc4nsnc34)CC2)c1	inconclusive: -58.6%
CCOC(=O)c1c(NC(=O)COc2cc(C)ccc2C(C)C)sc(C)c1C	inactive: 12.8%
Cn1c(C(C(=O)NCC2CCCO2)N(CCc2ccccc2)C(=O)Cn2nnc3ccccc32)nc2ccccc21 (stereo unspecified)	active: -65.2%
Cc1ccc(NC(=O)COC(=O)c2cc(C)nc3ccccc23)c([N+](=O)[O-])c1	inconclusive: -41.6%
CCOC(=O)c1cn2nc(Oc3ccc(C#N)cc3)ccc2n1	inconclusive: -41.4%
O=C(NCCC1=CCCCC1)c1ccc2c(c1)N(Cc1cccc(Cl)c1)C(=O)c1ccccc1S2=O (stereo unspecified)	active: -62.8%
COc1cc(OC)c(/C=N/NC(=O)c2ccc(Cn3nc([N+](=O)[O-])cc3C)cc2)c(OC)c1	inconclusive: -51%
Cc1ccc(C)c(NC(=O)CN(C)C(=O)c2cccc(S(=O)(=O)N3CCN(Cc4ccccc4)CC3)c2)c1	inconclusive: -56.3%
COCc1cc(C)nc(SCc2ccc(Br)cc2)c1C#N	inconclusive: -50.1%
